Our source for the binding values is publication PMC5379069, “A Pseudomonas T6SS effector recruits PQS-containing outer membrane vesicles for iron acquisition” (Nature Communications, 2017).

Amino acid sequences for entries named in this document (tags omitted).
UniProt Q9I741: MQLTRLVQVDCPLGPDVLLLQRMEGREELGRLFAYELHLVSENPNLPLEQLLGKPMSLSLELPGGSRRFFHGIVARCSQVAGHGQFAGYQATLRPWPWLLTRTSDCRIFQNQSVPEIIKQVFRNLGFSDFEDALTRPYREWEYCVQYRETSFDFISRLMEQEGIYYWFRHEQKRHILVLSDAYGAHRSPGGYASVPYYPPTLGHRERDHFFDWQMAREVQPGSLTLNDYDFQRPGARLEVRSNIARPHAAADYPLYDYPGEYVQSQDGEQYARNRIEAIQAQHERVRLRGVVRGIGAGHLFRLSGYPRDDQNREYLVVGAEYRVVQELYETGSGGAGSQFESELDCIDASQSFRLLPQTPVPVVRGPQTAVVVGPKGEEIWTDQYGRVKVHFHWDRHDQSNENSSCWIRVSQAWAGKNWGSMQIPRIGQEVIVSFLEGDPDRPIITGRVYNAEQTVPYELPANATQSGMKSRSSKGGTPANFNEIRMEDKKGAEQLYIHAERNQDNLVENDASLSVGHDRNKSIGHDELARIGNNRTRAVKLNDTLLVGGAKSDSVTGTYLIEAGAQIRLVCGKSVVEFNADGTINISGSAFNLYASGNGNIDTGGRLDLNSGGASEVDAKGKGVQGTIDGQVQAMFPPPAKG
UniProt Q9I737: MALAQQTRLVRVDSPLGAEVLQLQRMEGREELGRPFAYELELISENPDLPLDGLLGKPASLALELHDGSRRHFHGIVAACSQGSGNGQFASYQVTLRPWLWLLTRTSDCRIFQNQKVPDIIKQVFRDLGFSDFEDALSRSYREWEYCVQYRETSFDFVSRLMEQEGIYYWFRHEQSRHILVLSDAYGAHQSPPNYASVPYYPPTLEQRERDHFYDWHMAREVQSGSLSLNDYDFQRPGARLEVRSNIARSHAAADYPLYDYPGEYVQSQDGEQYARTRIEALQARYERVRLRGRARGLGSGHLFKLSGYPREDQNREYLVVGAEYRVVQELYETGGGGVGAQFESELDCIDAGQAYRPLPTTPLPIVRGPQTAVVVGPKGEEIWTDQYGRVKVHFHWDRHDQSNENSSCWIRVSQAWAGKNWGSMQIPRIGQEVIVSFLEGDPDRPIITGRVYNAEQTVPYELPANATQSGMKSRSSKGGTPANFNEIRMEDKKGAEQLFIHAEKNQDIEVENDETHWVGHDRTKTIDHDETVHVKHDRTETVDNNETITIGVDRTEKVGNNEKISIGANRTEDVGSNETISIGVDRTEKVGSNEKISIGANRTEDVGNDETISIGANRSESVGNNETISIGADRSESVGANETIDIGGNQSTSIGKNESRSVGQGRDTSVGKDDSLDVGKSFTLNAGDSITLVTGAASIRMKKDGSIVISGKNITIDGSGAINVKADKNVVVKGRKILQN

The test addresses PA0533 (Pseudomonas aeruginosa PAO1) (UniProt Q9I603). The experiment in a line: pull-down; only the target purified.

Results are given in words; binding and its absence hold for the method and conditions named. Binding seen in cells or lysates may run through a third protein.

For the substance VgrG1a-VSVG (from UniProt Q9I741 1-643), the binding entry was “no binding”.

On to VgrG1b-VSVG (from UniProt Q9I737 1-741), for which the binding result is on record as “no binding”.
